Assay results reported in patent US20070269898A1, “Amino Acid Sequences Essential to Neuron Specific Gene Expression” (YOKOHAMA CITY UNIVERSITY, priority 2004, published 2007).
Part of at least one peptide drawing is inferred or uncertain, most often the ends. Where no end group is shown, it is not given here.

Biological target: T1, mSin3B PAH1 domain (Mus musculus, UniProt Q62141)
T1 construct: Gly-Ser-His-Met (vector-derived N-terminal residues; general statement only, not tied to the sample used) (N); made in house
T1 sequence (Q62141 28-107): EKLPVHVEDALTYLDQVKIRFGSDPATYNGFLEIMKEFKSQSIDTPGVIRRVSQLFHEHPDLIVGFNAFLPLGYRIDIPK
Assay: 1H-15N HSQC interaction / titration experiment with 15N-labeled mSin3B PAH1 domain
Assay type: binding
Procedure: Interaction candidate regions of NRSF/REST (a.a. 43-83, 39-55, 38-57, 64-80 and 68-83) were individually added to an aqueous solution of ^15N-labeled mSin3B PAH1 for measuring ^1H—^15N HSQC to thereby determine a region necessary for the interaction. In order to examine binding ratios, NRSF/REST (a.a. 42-56) at varied concentrations was added to ^15N-labeled mSin3B PAH1 domain in phosphate buffer (pH 6.6), followed by observation of signal changes by ^1H—^15N HSQC. […] Further, in order to carry out quantitative determination of concentrations with UV, a residue having an aromatic ring (W) was also added to the peptide. In a similar manner, the interaction between ^15N-labeled mSin3B PAH1 domain and N—CoR (a.a. 1829-1847) was observed by ^1H-^15N HSQC. For all of the NMR measurement, Bruker Advance 700 was used.
^1H—^15N HSQC spectra were measured when NRSF/REST (a.a. 42-56) was added to 0.1 mM ^15N-labeled mSin3B PAH1 domain at a molar ratio of 1:0, 1:0.5, 1:1 or 1:2. As the concentration of NRSF/REST increased, signals from the single peptide mSin3B disappeared and new signals derived from the mSin3B in complex began to appear. […] No difference was recognized between mSin3B PAH1:NRSF/REST ratios of 1:1 and 1:2. […]
^1H—^15N HSQC spectra were measured when N—CoR was added to 0.1 mM ^15N-labeled mSin3B PAH1 domain at a molar ratio of 1:0, 1:0.2, 1:0.4, 1:0.6, 1:0.8, 1:1, 1:2 or 1:3. […]

## AAPQLIMLANVALTGKKKKW [NRSF/REST 42-56]
Peptide added to aqueous solution of 15N-labeled mSin3B PAH1
  Spectrum (1H-15N HSQC of 15N-mSin3B PAH1 after adding the peptide: complex or single peptide): Complex
Titration into 0.1 mM 15N-labeled mSin3B PAH1 domain, 1H-15N HSQC
  exchange process on the NMR timescale: slow exchange process
